Counter-ions that a name gives are not always drawn. Some of the results follow. Single values are uncertain here, since repeats match poorly.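 A screen tested FDA-approved drugs combined with one-eighth-MIC colistin against a clinical mcr-1-positive, multidrug-resistant E. coli isolate, measuring OD600 at 24 h. Controls were untreated bacteria (growth) and broth alone (blank). An OD600 under 0.2 marked a combination as active.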

This assay deals with Escherichia coli 42 (mcr-1-positive clinical isolate). In words: OD600 after 24 h growth with compound plus colistin (absorbance units (OD600)); higher = more bacterial growth (less inhibition). Conditions: first compound 25 µM; colistin concentration 0.5 ug/mL; incubation time 24 h; 37 °C.
As for `C=CC[C@@H]1/C=C(\C)C[C@H](C)C[C@H](OC)[C@H]2O[C@@](O)(C(=O)C(=O)N3CCCC[C@H]3C(=O)O[C@H](/C(C)=C/[C@@H]3CC[C@@H](O)[C@H](OC)C3)[C@H](C)[C@@H](O)CC1=O)[C@H](C)C[C@@H]2OC` [Tacrolimus] + CCC(C)CCCC(=O)N[C@@H](CCN)C(=O)N[C@H](C(=O)N[C@@H](CCN)C(=O)N[C@H]1CCNC(=O)[C@H]([C@@H](C)O)NC(=O)[C@H](CCN)NC(=O)[C@H](CCN)NC(=O)[C@H](CC(C)C)NC(=O)[C@@H](CC(C)C)NC(=O)[C@H](CCN)NC1=O)[C@@H](C)O [colistin], the OD600 is inactive: 0.906.
In the case of `CC(=O)[C@H]1CC[C@H]2[C@@H]3C[C@H](C)C4=CC(=O)CC[C@]4(C)[C@H]3[C@@H](O)C[C@]12C` [Medrysone] + CCC(C)CCCC(=O)N[C@@H](CCN)C(=O)N[C@H](C(=O)N[C@@H](CCN)C(=O)N[C@H]1CCNC(=O)[C@H]([C@@H](C)O)NC(=O)[C@H](CCN)NC(=O)[C@H](CCN)NC(=O)[C@H](CC(C)C)NC(=O)[C@@H](CC(C)C)NC(=O)[C@H](CCN)NC1=O)[C@@H](C)O [colistin], the OD600 is inactive: 1.26.
Regarding `Cc1ccnc2c1NC(=O)c1cccnc1N2C1CC1` [Nevirapine] + CCC(C)CCCC(=O)N[C@@H](CCN)C(=O)N[C@H](C(=O)N[C@@H](CCN)C(=O)N[C@H]1CCNC(=O)[C@H]([C@@H](C)O)NC(=O)[C@H](CCN)NC(=O)[C@H](CCN)NC(=O)[C@H](CC(C)C)NC(=O)[C@@H](CC(C)C)NC(=O)[C@H](CCN)NC1=O)[C@@H](C)O [colistin], the OD600 was inactive: 1.06.
The figure for `CCOC(=O)[C@H](CCc1ccccc1)N[C@@H](C)C(=O)N1[C@H](C(=O)O)C[C@@H]2CCC[C@@H]21` [Ramipril] + CCC(C)CCCC(=O)N[C@@H](CCN)C(=O)N[C@H](C(=O)N[C@@H](CCN)C(=O)N[C@H]1CCNC(=O)[C@H]([C@@H](C)O)NC(=O)[C@H](CCN)NC(=O)[C@H](CCN)NC(=O)[C@H](CC(C)C)NC(=O)[C@@H](CC(C)C)NC(=O)[C@H](CCN)NC1=O)[C@@H](C)O [colistin] is inactive: 0.891; for `Cc1cnc(C(=O)NCCc2ccc(S(=O)(=O)NC(=O)NC3CCCCC3)cc2)cn1` [Glipizide] + CCC(C)CCCC(=O)N[C@@H](CCN)C(=O)N[C@H](C(=O)N[C@@H](CCN)C(=O)N[C@H]1CCNC(=O)[C@H]([C@@H](C)O)NC(=O)[C@H](CCN)NC(=O)[C@H](CCN)NC(=O)[C@H](CC(C)C)NC(=O)[C@@H](CC(C)C)NC(=O)[C@H](CCN)NC1=O)[C@@H](C)O [colistin] it is inactive: 0.977; for `CC1=Nc2ccc(Cl)cc2S(=O)(=O)N1` [Diazoxide] + CCC(C)CCCC(=O)N[C@@H](CCN)C(=O)N[C@H](C(=O)N[C@@H](CCN)C(=O)N[C@H]1CCNC(=O)[C@H]([C@@H](C)O)NC(=O)[C@H](CCN)NC(=O)[C@H](CCN)NC(=O)[C@H](CC(C)C)NC(=O)[C@@H](CC(C)C)NC(=O)[C@H](CCN)NC1=O)[C@@H](C)O [colistin] it is inactive: 1.07.
With `CCCc1nc2c(C)cc(-c3nc4ccccc4n3C)cc2n1Cc1ccc(-c2ccccc2C(=O)O)cc1` [Telmisartan] + CCC(C)CCCC(=O)N[C@@H](CCN)C(=O)N[C@H](C(=O)N[C@@H](CCN)C(=O)N[C@H]1CCNC(=O)[C@H]([C@@H](C)O)NC(=O)[C@H](CCN)NC(=O)[C@H](CCN)NC(=O)[C@H](CC(C)C)NC(=O)[C@@H](CC(C)C)NC(=O)[C@H](CCN)NC1=O)[C@@H](C)O [colistin], the OD600 is inactive: 0.788.
Turning to `C[C@H]1CN(C[C@H](Cc2ccccc2)C(=O)NCC(=O)O)CC[C@@]1(C)c1cccc(O)c1` [Alvimopan] + CCC(C)CCCC(=O)N[C@@H](CCN)C(=O)N[C@H](C(=O)N[C@@H](CCN)C(=O)N[C@H]1CCNC(=O)[C@H]([C@@H](C)O)NC(=O)[C@H](CCN)NC(=O)[C@H](CCN)NC(=O)[C@H](CC(C)C)NC(=O)[C@@H](CC(C)C)NC(=O)[C@H](CCN)NC1=O)[C@@H](C)O [colistin], the OD600 was inactive: 1.14.
Turning to `CC(=O)OCC(=O)[C@@]1(O)CC[C@H]2[C@@H]3CCC4=CC(=O)CC[C@]4(C)[C@H]3[C@@H](O)C[C@@]21C` [Hydrocortisone acetate] + CCC(C)CCCC(=O)N[C@@H](CCN)C(=O)N[C@H](C(=O)N[C@@H](CCN)C(=O)N[C@H]1CCNC(=O)[C@H]([C@@H](C)O)NC(=O)[C@H](CCN)NC(=O)[C@H](CCN)NC(=O)[C@H](CC(C)C)NC(=O)[C@@H](CC(C)C)NC(=O)[C@H](CCN)NC1=O)[C@@H](C)O [colistin], the OD600 was inactive: 1.12.
As for `CCC(=O)OCC(=O)[C@@]1(OC(=O)CC)[C@@H](C)C[C@H]2[C@@H]3CCC4=CC(=O)C=C[C@]4(C)[C@@]3(F)[C@@H](O)C[C@@]21C` [Betamethasone dipropionate] + CCC(C)CCCC(=O)N[C@@H](CCN)C(=O)N[C@H](C(=O)N[C@@H](CCN)C(=O)N[C@H]1CCNC(=O)[C@H]([C@@H](C)O)NC(=O)[C@H](CCN)NC(=O)[C@H](CCN)NC(=O)[C@H](CC(C)C)NC(=O)[C@@H](CC(C)C)NC(=O)[C@H](CCN)NC1=O)[C@@H](C)O [colistin], the OD600 was inactive: 0.781.
To `C[N+]1(C)[C@@H]2C[C@@H](OC(=O)C(O)(c3cccs3)c3cccs3)C[C@H]1[C@@H]1O[C@@H]12` [Tiotropium bromide] + CCC(C)CCCC(=O)N[C@@H](CCN)C(=O)N[C@H](C(=O)N[C@@H](CCN)C(=O)N[C@H]1CCNC(=O)[C@H]([C@@H](C)O)NC(=O)[C@H](CCN)NC(=O)[C@H](CCN)NC(=O)[C@H](CC(C)C)NC(=O)[C@@H](CC(C)C)NC(=O)[C@H](CCN)NC1=O)[C@@H](C)O [colistin] belongs inactive: 0.956.
As for `CCCc1nc(C(C)(C)O)c(C(=O)OCc2oc(=O)oc2C)n1Cc1ccc(-c2ccccc2-c2nnn[nH]2)cc1` [Olmesartan Medoxomil] + CCC(C)CCCC(=O)N[C@@H](CCN)C(=O)N[C@H](C(=O)N[C@@H](CCN)C(=O)N[C@H]1CCNC(=O)[C@H]([C@@H](C)O)NC(=O)[C@H](CCN)NC(=O)[C@H](CCN)NC(=O)[C@H](CC(C)C)NC(=O)[C@@H](CC(C)C)NC(=O)[C@H](CCN)NC1=O)[C@@H](C)O [colistin], the OD600 was inactive: 0.977.
Consider `COc1ccc(CN(CCN(C)C)c2ccccn2)cc1` [Mepyramine maleate] + CCC(C)CCCC(=O)N[C@@H](CCN)C(=O)N[C@H](C(=O)N[C@@H](CCN)C(=O)N[C@H]1CCNC(=O)[C@H]([C@@H](C)O)NC(=O)[C@H](CCN)NC(=O)[C@H](CCN)NC(=O)[C@H](CC(C)C)NC(=O)[C@@H](CC(C)C)NC(=O)[C@H](CCN)NC1=O)[C@@H](C)O [colistin], for which the OD600 was inactive: 1.11.
To `CC(C)COc1ccc(CNC(=O)N(Cc2ccc(F)cc2)C2CCN(C)CC2)cc1` [Pimavanserin] + CCC(C)CCCC(=O)N[C@@H](CCN)C(=O)N[C@H](C(=O)N[C@@H](CCN)C(=O)N[C@H]1CCNC(=O)[C@H]([C@@H](C)O)NC(=O)[C@H](CCN)NC(=O)[C@H](CCN)NC(=O)[C@H](CC(C)C)NC(=O)[C@@H](CC(C)C)NC(=O)[C@H](CCN)NC1=O)[C@@H](C)O [colistin] belongs inactive: 1.04; to `CC/C(=C(\c1ccccc1)c1ccc(OCCN(C)C)cc1)c1ccccc1` [Tamoxifen Citrate] + CCC(C)CCCC(=O)N[C@@H](CCN)C(=O)N[C@H](C(=O)N[C@@H](CCN)C(=O)N[C@H]1CCNC(=O)[C@H]([C@@H](C)O)NC(=O)[C@H](CCN)NC(=O)[C@H](CCN)NC(=O)[C@H](CC(C)C)NC(=O)[C@@H](CC(C)C)NC(=O)[C@H](CCN)NC1=O)[C@@H](C)O [colistin], active: 0.041.
Turning to `O=C(c1ccccc1)c1ccc2n1CCC2C(=O)O` (stereo not drawn) [Ketorolac tromethamine salt] + CCC(C)CCCC(=O)N[C@@H](CCN)C(=O)N[C@H](C(=O)N[C@@H](CCN)C(=O)N[C@H]1CCNC(=O)[C@H]([C@@H](C)O)NC(=O)[C@H](CCN)NC(=O)[C@H](CCN)NC(=O)[C@H](CC(C)C)NC(=O)[C@@H](CC(C)C)NC(=O)[C@H](CCN)NC1=O)[C@@H](C)O [colistin], the OD600 is inactive: 0.952.
Regarding `Cc1cccc(Nc2ccccc2C(=O)O)c1C` [Mefenamic acid] + CCC(C)CCCC(=O)N[C@@H](CCN)C(=O)N[C@H](C(=O)N[C@@H](CCN)C(=O)N[C@H]1CCNC(=O)[C@H]([C@@H](C)O)NC(=O)[C@H](CCN)NC(=O)[C@H](CCN)NC(=O)[C@H](CC(C)C)NC(=O)[C@@H](CC(C)C)NC(=O)[C@H](CCN)NC1=O)[C@@H](C)O [colistin], the OD600 was inactive: 1.05.
With `COc1cccc2c1C(=O)c1c(O)c3c(c(O)c1C2=O)C[C@@](O)(C(=O)CO)C[C@@H]3O[C@H]1C[C@H](N)[C@@H](O)[C@H](C)O1` [Epirubicin hydrochloride] + CCC(C)CCCC(=O)N[C@@H](CCN)C(=O)N[C@H](C(=O)N[C@@H](CCN)C(=O)N[C@H]1CCNC(=O)[C@H]([C@@H](C)O)NC(=O)[C@H](CCN)NC(=O)[C@H](CCN)NC(=O)[C@H](CC(C)C)NC(=O)[C@@H](CC(C)C)NC(=O)[C@H](CCN)NC1=O)[C@@H](C)O [colistin], the OD600 was inactive: 1.

The values are drawn from the supplement of paper PMC11546906.
